Source: PubChem BioAssay (EPA / NIEHS)
Values joined by “and” are separate entries in the source; they are usually repeats but may differ in a detail not shown here. Equal entries are not always repeated. Only results without a clear call are listed here; the source files them as inconclusive. The calls were made as follows: active = hit-call score of the fitted dose curve at least 0.9, where 1 is the maximum; inconclusive = response in the unintended direction; inactive = score below 0.9.

By UniProt entry, the sequences of proteins in these tests, tags left out. Where a name states a change or a piece, a line headed by the entry shows the natural chain unless it says otherwise.
UniProt P43354, whole entry: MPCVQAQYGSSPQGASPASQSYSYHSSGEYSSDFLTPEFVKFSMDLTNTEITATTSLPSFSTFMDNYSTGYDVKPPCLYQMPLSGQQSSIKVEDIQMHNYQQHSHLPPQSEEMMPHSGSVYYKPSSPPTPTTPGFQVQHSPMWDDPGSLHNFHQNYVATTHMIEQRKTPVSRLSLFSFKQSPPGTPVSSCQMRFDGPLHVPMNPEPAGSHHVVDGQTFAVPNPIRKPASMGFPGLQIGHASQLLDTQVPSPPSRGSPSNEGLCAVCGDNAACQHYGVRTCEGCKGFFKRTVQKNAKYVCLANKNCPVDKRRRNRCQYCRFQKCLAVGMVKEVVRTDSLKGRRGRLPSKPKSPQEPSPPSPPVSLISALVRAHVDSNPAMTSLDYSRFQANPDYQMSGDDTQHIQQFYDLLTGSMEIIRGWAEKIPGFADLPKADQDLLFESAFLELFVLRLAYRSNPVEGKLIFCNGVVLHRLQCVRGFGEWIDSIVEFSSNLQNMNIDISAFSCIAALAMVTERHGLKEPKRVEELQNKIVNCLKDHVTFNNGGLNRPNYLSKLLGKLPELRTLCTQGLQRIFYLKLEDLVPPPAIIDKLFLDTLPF
UniProt P10826, whole entry: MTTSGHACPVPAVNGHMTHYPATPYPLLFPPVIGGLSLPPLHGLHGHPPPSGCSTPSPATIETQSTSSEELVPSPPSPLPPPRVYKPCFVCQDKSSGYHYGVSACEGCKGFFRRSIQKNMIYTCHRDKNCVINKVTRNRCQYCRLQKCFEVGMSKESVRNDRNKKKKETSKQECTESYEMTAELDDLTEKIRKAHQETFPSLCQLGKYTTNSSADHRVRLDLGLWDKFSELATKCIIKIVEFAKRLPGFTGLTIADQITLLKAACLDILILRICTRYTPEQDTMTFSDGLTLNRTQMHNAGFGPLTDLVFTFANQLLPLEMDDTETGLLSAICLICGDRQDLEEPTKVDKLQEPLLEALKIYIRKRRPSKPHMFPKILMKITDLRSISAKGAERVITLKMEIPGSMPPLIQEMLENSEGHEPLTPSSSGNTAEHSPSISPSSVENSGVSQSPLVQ
UniProt P10276, whole entry: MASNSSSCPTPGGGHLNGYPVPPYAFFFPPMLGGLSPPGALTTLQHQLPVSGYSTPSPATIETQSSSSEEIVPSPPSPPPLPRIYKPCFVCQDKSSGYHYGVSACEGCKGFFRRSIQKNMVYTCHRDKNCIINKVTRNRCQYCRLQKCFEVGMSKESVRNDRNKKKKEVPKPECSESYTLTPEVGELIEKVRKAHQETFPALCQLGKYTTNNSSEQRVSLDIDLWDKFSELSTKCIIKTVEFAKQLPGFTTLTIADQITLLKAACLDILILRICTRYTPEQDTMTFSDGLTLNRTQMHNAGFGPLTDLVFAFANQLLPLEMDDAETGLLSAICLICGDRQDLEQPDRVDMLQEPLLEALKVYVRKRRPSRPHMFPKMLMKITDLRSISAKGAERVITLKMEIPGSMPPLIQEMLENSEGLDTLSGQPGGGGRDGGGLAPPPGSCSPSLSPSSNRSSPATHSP
UniProt P19793, whole entry: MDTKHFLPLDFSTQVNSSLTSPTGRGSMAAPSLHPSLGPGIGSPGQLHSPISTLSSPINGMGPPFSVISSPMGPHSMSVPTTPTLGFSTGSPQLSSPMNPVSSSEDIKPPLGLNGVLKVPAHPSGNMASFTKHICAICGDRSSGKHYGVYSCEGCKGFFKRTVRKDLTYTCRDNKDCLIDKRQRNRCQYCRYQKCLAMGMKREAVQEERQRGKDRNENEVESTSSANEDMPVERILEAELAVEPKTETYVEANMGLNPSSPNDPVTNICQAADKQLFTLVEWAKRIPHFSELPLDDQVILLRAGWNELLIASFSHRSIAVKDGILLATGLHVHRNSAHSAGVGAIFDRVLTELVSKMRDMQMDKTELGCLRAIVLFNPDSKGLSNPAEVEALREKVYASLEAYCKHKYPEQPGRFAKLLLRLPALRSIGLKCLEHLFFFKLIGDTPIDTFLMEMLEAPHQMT
UniProt P28702, whole entry: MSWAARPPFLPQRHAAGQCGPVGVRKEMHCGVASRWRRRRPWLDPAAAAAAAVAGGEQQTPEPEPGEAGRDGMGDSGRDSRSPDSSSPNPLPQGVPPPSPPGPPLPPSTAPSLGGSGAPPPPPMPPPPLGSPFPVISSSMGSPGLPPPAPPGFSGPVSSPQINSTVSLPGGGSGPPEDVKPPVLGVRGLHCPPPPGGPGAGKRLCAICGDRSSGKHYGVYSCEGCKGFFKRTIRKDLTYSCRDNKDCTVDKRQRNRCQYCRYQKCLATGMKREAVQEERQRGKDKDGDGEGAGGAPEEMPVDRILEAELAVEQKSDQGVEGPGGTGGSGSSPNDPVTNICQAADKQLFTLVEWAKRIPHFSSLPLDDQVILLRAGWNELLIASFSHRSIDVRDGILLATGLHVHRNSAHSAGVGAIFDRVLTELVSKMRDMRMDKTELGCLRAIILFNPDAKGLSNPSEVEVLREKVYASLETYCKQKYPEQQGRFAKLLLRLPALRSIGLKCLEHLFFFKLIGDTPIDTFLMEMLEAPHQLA
UniProt O70528, whole entry: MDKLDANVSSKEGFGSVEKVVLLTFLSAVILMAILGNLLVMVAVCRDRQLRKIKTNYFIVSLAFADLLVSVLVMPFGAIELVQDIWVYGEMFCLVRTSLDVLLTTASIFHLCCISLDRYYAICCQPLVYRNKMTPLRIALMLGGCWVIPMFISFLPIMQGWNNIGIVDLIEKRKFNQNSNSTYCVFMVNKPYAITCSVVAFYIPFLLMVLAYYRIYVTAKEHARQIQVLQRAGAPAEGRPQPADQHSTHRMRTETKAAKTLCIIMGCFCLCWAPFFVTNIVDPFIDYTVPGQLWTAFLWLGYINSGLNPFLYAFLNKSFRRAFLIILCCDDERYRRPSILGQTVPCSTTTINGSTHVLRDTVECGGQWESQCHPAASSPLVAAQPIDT
UniProt P19490, whole entry: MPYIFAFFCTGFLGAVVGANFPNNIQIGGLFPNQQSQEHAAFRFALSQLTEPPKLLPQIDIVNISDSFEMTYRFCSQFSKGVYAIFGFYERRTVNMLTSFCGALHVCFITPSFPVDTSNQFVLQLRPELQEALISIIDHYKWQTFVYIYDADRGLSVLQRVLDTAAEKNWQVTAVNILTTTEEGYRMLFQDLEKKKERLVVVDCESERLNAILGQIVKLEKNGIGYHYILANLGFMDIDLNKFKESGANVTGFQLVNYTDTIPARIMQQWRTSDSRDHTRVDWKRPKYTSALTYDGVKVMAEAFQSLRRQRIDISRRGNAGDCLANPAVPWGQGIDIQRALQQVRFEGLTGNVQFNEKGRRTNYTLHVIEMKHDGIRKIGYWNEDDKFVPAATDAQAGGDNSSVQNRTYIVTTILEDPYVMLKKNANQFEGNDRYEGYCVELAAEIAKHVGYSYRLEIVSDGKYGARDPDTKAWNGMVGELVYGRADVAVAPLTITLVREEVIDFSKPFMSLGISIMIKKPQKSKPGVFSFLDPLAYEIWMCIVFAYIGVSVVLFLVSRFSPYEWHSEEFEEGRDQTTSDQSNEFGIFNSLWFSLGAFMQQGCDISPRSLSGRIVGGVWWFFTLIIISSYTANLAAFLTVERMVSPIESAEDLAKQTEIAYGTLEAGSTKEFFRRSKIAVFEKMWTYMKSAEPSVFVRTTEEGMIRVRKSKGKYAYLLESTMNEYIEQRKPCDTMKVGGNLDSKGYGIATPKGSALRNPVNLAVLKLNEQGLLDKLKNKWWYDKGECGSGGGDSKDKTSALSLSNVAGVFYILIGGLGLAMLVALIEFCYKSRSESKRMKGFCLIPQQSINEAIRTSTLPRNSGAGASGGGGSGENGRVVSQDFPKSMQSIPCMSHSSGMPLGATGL
UniProt Q07869, whole entry: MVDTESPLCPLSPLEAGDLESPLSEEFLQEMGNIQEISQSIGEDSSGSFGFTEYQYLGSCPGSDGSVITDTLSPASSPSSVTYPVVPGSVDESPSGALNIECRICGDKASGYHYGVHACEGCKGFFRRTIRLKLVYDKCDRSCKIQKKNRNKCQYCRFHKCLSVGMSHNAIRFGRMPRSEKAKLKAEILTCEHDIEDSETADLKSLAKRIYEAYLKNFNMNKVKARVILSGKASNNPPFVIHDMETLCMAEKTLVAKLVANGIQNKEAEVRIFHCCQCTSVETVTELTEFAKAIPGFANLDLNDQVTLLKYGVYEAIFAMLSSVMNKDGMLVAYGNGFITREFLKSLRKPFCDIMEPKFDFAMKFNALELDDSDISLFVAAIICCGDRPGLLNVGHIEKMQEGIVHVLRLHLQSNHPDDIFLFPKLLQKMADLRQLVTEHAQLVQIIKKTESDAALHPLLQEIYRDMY
UniProt P41235, whole entry: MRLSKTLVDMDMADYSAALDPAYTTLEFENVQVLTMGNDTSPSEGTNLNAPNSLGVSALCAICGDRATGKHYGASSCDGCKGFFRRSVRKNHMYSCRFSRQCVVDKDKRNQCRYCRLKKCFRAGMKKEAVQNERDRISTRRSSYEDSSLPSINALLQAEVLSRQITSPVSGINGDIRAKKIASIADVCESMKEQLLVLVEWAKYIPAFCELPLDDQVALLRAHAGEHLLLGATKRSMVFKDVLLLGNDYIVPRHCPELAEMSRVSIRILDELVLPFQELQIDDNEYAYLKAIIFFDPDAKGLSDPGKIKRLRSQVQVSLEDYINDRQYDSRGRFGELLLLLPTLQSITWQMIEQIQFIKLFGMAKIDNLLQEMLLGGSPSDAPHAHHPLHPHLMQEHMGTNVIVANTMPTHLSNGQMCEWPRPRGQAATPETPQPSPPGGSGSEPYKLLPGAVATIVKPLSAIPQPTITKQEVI
UniProt Q92753, whole entry: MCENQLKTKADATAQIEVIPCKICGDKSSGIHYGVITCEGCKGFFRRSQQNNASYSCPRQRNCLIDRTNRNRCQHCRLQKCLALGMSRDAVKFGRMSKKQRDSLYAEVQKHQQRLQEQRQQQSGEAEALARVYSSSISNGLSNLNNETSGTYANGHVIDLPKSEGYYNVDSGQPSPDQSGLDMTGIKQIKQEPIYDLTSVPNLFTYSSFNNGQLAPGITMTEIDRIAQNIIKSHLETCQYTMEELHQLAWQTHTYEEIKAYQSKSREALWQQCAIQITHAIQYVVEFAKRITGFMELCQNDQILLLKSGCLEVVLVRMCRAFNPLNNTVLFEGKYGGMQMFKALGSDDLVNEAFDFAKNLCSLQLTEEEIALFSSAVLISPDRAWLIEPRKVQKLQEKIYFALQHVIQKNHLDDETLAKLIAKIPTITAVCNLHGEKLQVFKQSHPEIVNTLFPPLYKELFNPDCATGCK
UniProt P06401, whole entry: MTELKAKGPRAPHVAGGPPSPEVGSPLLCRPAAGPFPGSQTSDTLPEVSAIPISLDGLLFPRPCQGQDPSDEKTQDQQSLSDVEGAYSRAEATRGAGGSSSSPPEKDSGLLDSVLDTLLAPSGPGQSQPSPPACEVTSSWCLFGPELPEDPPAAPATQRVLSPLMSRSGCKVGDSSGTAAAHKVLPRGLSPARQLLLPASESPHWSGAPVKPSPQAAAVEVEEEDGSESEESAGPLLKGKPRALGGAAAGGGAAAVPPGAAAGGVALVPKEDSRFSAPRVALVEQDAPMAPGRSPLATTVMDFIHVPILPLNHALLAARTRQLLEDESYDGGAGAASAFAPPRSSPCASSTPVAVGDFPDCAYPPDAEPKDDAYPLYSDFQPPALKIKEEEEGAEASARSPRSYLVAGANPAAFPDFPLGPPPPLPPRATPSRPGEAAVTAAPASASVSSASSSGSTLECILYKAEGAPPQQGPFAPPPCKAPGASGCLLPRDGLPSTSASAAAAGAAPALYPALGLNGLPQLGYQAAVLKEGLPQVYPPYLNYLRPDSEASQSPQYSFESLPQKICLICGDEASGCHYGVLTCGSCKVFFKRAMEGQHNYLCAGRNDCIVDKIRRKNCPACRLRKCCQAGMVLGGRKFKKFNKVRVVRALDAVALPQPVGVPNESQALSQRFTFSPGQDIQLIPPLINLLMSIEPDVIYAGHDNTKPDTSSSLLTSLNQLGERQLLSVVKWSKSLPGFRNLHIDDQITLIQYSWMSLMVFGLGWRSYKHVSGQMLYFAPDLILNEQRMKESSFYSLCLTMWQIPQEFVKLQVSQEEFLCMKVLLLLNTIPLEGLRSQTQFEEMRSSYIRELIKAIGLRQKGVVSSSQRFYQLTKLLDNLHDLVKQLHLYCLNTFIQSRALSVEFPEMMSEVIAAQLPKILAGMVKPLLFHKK

What was measured:
[1] = target: Nuclear receptor subfamily 4 group A member 2 (Homo sapiens) (UniProt P43354); assay: ATG_NURR1_TRANS: Attagene TRANS-FACTORIAL HepG2 Assay for human Nuclear Receptor Related Protein 1 (NURR1) (AID 2282985); details: HepG2 Attagene TRANS reporter, mRNA readout
Summary of the method: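 Cells: HepG2, transiently transfected. Exposure: 24 h. Detection: fluorescence of labelled RT-PCR products separated by capillary electrophoresis; upward fit versus DMSO.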

[2] = target: human Retinoic Acid Receptor beta (RARb), RARB (gene 5915) (UniProt P10826); assay: ATG_RARb_TRANS: Attagene TRANS-FACTORIAL HepG2 Assay for human Retinoic Acid Receptor beta (AID 2283004)
Summary of the method: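 HepG2 cells transiently transfected with multiplexed GAL4-UAS reporter units expressing chimeric NR–Gal4 fusions; 24 h compound exposure. Reporter mRNA quantified by RT-PCR, 6-FAM labelling, HpaI digestion and capillary electrophoresis; gain-of-signal fitted against DMSO baseline.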

[3] = target: Retinoic acid receptor alpha (Homo sapiens) (UniProt P10276); assay: ATG_RARa_TRANS: Attagene TRANS-FACTORIAL HepG2 Assay for human Retinoic Acid Receptor alpha (RARa) (AID 2283005);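 also: potency for increased reporter signal meaning RARa activation over DMSO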
Summary of the method: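 Reporter transcripts, measured by RT-PCR with fluorescent labeling and capillary electrophoresis after 24 h dosing, reflect activity of an exogenous human RARa–GAL4 fusion in transiently transfected HepG2. Fitted for increase relative to DMSO.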

[4] = target: Retinoic acid receptor RXR-alpha (Homo sapiens) (UniProt P19793); assay: ATG_RXRa_TRANS: Attagene TRANS-FACTORIAL HepG2 Assay for human Retinoid X Receptor alpha (RXRa) (AID 2283012)
Summary of the method: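 Cells (HepG2) carried transiently transfected GAL4-responsive reporter units. Following a 24 h chemical incubation, reporter mRNA induction was read via RT-PCR fragment analysis; DMSO served as negative control and baseline.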

[5] = target: human Retinoid X Receptor beta (RXRb), RXRB (gene 6257) (UniProt P28702); assay: ATG_RXRb_TRANS: Attagene TRANS-FACTORIAL HepG2 Assay for human Retinoid X Receptor beta (RXRb) (AID 2283013)
Summary of the method: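 Multiplexed TRANS reporter assay in HepG2; 24 h dosing; reporter mRNA by RT-PCR/CE fluorescence; gain-of-signal relative to DMSO.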

[6] = target: guinea pig Serotonin, 5-Hydroxytryptamine Receptor 4 (5HT4), HTR4 (gene 100135548) (UniProt O70528); assay: NVS_GPCR_g5HT4: NovaScreen (NVS) G Protein-Coupled Receptor Assay for guinea pig Serotonin, 5-Hydroxytryptamine Receptor 4 (5HT4) (AID 2283294)
Summary of the method: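 Guinea pig striatal membranes; radioligand competitive displacement, filtration and scintillation counting after 1 h. Primary screen in duplicate at 25 uM; actives then tested in concentration series; loss of binding signal fitted relative to DMSO.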

[7] = target: rat Glutamate, AMPA Site (AMPA), Gria1 (gene 50592) (UniProt P19490); assay: NVS_LGIC_rAMPA: NovaScreen (NVS) Ligand-Gated Ion Channel Assay for rat Glutamate, AMPA Site (AMPA) (AID 2283324)
Summary of the method: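 Rat forebrain membranes; radioligand binding read 1 h after dosing by filtration and scintillation counting. Duplicate single-point screen at 25 uM, then concentration-response to 50 uM for threshold hits (e.g. 30% inhibition); loss of signal vs DMSO.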

[8] = target: human Peroxisome Proliferator-activated Receptor alpha (PPARa), PPARA (gene 5465) (UniProt Q07869); assay: NVS_NR_hPPARa: NovaScreen (NVS) Nuclear Receptor Binding Assay for human Peroxisome Proliferator-activated Receptor alpha (PPARa) (AID 2283359);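 also: activity means loss of TR-FRET signal versus DMSO baseline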
Summary of the method: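 Chemicals were first screened in duplicate at 25 uM, and active ones were retested across concentration series. Binding was monitored by TR-FRET one hour after dosing, with decreased signal against DMSO counted as activity.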

[9] = target: Retinoic acid receptor RXR-alpha (Homo sapiens) (UniProt P19793); assay: OT_NURR1_NURR1RXRa_0480: Odyssey Thera (OT) 8-hour HEK293T Protein Complementation Assay for Nurr1/retinoid X receptor (RXR) (AID 2283385)
Summary of the method: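 Compounds are applied to HEK293T cells carrying Nurr1 and RXRα linked to reporter fragments. After 8 h, fluorescence intensity reports heterodimer formation, with DMSO as baseline.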

[10] = target: Retinoic acid receptor RXR-alpha (Homo sapiens) (UniProt P19793); assay: OT_NURR1_NURR1RXRa_1440: Odyssey Thera (OT) 24-hour HEK293T Protein Complementation Assay for Nurr1/retinoid X receptor (RXR) (AID 2283386)
Summary of the method: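 Measured as fluorescence from a reconstituted split reporter, this 24 h HEK293T complementation assay scores compound-induced gain of Nurr1/RXRα association relative to DMSO.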

[11] = Tanguay_ZF_120hpf_EYE_legacy: (Legacy) Oregon State University Tanguay Lab 120 Hour Post-fertilization zebrafish Assay for Eye Malformation (AID 2283636)
Summary of the method: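 Read-out is binary presence or absence of eye malformation, scored by brightfield microscopy at 120 hpf. Single larvae were exposed from 6 hpf in embryo medium containing 0.64% DMSO, with DMSO as baseline.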

[12] = Tanguay_ZF_120hpf_BRAI_legacy: (Legacy) Oregon State University Tanguay Lab 120 Hour Post-fertilization zebrafish Assay for Brain Malformation (AID 2283641)
Summary of the method: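 Tropical 5D wild-type zebrafish embryos were exposed statically in sealed, foil-covered plates at 28C until 120 hpf, with 0.64% (vol/vol) final DMSO. Brain malformation was scored present/absent by brightfield microscopy, relative to DMSO baseline.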

[13] = Tanguay_ZF_120hpf_SOMI_legacy: (Legacy) Oregon State University Tanguay Lab 120 Hour Post-fertilization zebrafish Assay for Somite Malformation (AID 2283647)
Summary of the method: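 Tropical 5D wild-type zebrafish embryos, dechorionated with pronase at 4 hpf, were placed singly at 6 hpf and statically exposed until 120 hpf at 28C in 0.64% DMSO. Somite malformation was scored present/absent by brightfield microscopy versus DMSO.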

[14] = Tanguay_ZF_120hpf_PFIN_legacy: (Legacy) Oregon State University Tanguay Lab 120 Hour Post-fertilization zebrafish Assay for Pectoral Fin Malformation (AID 2283648);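 also: each larva judged yes or no for fin defect by brightfield with dead larvae skipped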
Summary of the method: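 5D WT zebrafish; pronase dechorionation 4 hpf; 1 embryo/well at 6 hpf; static exposure to 120 hpf, 28C, sealed, foil-covered; final DMSO 0.64% v/v; 5 uM trimethyltin chloride positive control; fin defect scored yes/no.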

[15] = Tanguay_ZF_120hpf_TR_legacy: (Legacy) Oregon State University Tanguay Lab 120 Hour Post-fertilization zebrafish Assay for Touch Response (AID 2283667)
Summary of the method: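 5D WT embryos; static exposure to 120 hpf, 28C, sealed/dark; DMSO 0.64% v/v final. TR scored present/absent; dead embryos excluded. Pos ctrl 5uM trimethyltin chloride.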

[16] = CCTE_Shafer_MEA_acute_AB: CCTE's Alamar Blue Assay for Cytotoxicity in the Neural Acute Assay, Shafer Lab (AID 2284069);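 also: active compounds lower the viability signal compared with DMSO wells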
Summary of the method: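 Primary rat cortical neurons on MEA plates, exposed acutely after baseline recording on day 13 or 15 post-plating. Viability by CellTiter Blue resazurin reduction (1:6 reagent dilution), fluorescence 544/590 nm; loss of signal versus DMSO.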

[17] = target: Hepatocyte nuclear factor 4-alpha (Homo sapiens) (UniProt P41235); assay: ATG_HNF4a_TRANS: Attagene TRANS-FACTORIAL HepG2 Assay for human Hepatocyte Nuclear Factor 4 alpha (HNF4a) (AID 2282982); details: HepG2 HNF4a transactivation reporter, mRNA readout
Summary of the method: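 Transfected HepG2 reporter cells are dosed for 24 h; reporter RNA is reverse-transcribed, amplified, fluorescently labelled and HpaI-digested before CE sizing. Positive-direction fit against DMSO.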

[18] = ATG_M_06_TRANS: Attagene TRANS-FACTORIAL HepG2 Assay for M06 Transcription Factor (Internal Marker) (AID 2282983); details: HepG2 Attagene TRANS M06 internal marker reporter;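 also: reporter transcript level by RT-PCR then capillary electrophoresis fluorescence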
Summary of the method: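 HepG2 cells transiently transfected with multiplexed GAL4-UAS reporter transcription units; after 24 h compound exposure, reporter mRNA measured by RT-PCR, FAM-labelled primer extension, HpaI digestion and capillary electrophoresis. Gain-of-signal fitted versus DMSO baseline; background control readout.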

[19] = target: human RAR-related Orphan Receptor beta (RORb), RORB (gene 6096) (UniProt Q92753); assay: ATG_RORb_TRANS: Attagene TRANS-FACTORIAL HepG2 Assay for human RAR-related Orphan Receptor beta (RORb) (AID 2283010)
Summary of the method: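 In this TRANS-format test, human HepG2 cells express chimeric NR-Gal4 fusion proteins driving GAL4-UAS reporters. After 24 h dosing, reporter transcripts are measured by fluorescent RT-PCR/capillary electrophoresis, with DMSO as negative control.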

[20] = target: PGR (gene 5241) (UniProt P06401); assay: NVS_NR_hPR: NovaScreen (NVS) Nuclear Receptor Binding Assay for human Progestron Receptor (PR) (AID 2283360);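 also: active means loss of bound radioligand signal versus DMSO baseline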
Summary of the method: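 Radioligand competition binding on receptor extracted from T47D cells, read by scintillation counting 18 h after dosing. Loss of signal versus DMSO; primary screen in duplicate at 25 uM, actives followed in concentration series.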

Measured: AC50

O=[N+]([O-])c1ccccc1[N+](=O)[O-]
inconclusive: [1] 0.00305 µM | [2] 6.62 µM | [3] 6.62 µM | [4] 33.4 µM | [5] 0.00305 µM | [6] 0.136 µM | [7] 0.761 µM | [8] | [9] | [10] 28.5 µM and 25.2 µM | [11] 32.7 µM | [12] 40.3 µM | [13] 48.3 µM | [14] 25.3 µM | [15] 45 µM | [16]

CC(C)OP(OC(C)C)OC(C)C
inconclusive: [17] 64.4 µM | [18] | [1] | [2] | [19] | [5] | [20] 25 µM
